Results are given in words; binding and its absence hold for the method and conditions named. In cells and extracts the contact can be indirect. Some results given as binding are weak or reduced against the parent protein; the word gives no strength. For some assays here: Tags and fused reporters may be left off the sequences shown. Blank lines part the entries; values can stand above or below the binder they belong to.
Columns and labels:
Assay in all cases: co-IP
[1] = biological target: flag-SAFB2^min (human) (UniProt Q14151)
[2] = biological target: flag-SAFB2^aa512-726 (human) (UniProt Q14151)
[3] = biological target: full-length flag-SAFB2 (human) (UniProt Q14151)

Sequences of proteins named here, by UniProt entry; tags and fusion partners are left off. Residues count along the entry.
UniProt Q14151, 561-726: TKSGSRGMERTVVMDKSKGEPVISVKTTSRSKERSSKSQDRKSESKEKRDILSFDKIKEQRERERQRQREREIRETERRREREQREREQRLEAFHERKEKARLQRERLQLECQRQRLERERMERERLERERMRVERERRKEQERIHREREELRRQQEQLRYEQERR
UniProt Q14151, 512-726: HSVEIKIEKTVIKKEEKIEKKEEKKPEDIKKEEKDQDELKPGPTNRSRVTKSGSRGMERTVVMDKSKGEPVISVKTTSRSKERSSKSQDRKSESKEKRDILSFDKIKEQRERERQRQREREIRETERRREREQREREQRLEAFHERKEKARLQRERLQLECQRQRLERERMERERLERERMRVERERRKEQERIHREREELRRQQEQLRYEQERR
UniProt Q14151, whole entry: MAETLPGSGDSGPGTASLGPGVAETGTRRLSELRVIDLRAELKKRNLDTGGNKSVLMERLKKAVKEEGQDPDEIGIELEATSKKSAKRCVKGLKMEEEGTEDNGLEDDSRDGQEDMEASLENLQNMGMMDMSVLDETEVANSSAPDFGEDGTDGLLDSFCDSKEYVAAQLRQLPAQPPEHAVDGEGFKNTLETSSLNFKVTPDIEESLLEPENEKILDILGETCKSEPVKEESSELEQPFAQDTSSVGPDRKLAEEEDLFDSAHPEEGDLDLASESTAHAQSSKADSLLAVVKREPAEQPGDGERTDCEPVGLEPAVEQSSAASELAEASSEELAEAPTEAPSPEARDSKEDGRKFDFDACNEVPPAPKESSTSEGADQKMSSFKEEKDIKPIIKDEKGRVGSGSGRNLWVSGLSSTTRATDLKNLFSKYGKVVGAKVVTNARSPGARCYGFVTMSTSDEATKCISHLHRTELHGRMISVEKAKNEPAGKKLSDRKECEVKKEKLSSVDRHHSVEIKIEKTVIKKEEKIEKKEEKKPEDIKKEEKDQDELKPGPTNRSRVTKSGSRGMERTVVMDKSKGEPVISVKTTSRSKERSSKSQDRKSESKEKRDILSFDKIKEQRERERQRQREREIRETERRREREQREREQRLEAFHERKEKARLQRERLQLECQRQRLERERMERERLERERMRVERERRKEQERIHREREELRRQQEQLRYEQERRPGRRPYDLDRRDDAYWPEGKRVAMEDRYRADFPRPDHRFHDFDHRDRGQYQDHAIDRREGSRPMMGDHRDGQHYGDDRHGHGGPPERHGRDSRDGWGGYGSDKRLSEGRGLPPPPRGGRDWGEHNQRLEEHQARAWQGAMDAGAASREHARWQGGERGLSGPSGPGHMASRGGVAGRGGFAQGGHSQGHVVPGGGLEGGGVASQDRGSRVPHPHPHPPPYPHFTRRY

- binding [1]: binds
B1: HA-tagged N-terminal part of DROSHA (aa1-389) (domain or fragment, UniProt Q9NRR4 1-389)
chain: MMQGNTCHRMSFHPGRGCPRGRGGHGARPSAPSFRPQNLRLLHPQQPPVQYQYEPPSAPSTTFSNSPAPNFLPPRPDFVPFPPPMPPSAQGPLPPCPIRPPFPNHQMRHPFPVPPCFPPMPPPMPCPNNPPVPGAPPGQGTFPFMMPPPSMPHPPPPPVMPQQVNYQYPPGYSHHNFPPPSFNSFQNNPSSFLPSANNSSSPHFRHLPPYPLPKAPSERRSPERLKHYDDHRHRDHSHGRGERHRSLDRRERGRSPDRRRQDSRYRSDYDRGRTPSRHRSYERSRERERERHRHRDNRRSPSLERSYKKEYKRSGRSYGLSVVPEPAGCTPELPGEIIKNTDSWAPPLEIVNHRSPSREKKRARWEEEKDRWSDNQSSGKDKNYTSIKE

- binding [1]: no binding
B2: HA-tagged C-terminal part of DROSHA (aa390-1374) (domain or fragment, UniProt Q9NRR4 390-1374)
chain: KEPEETMPDKNEEEEEELLKPVWIRCTHSENYYSSDPMDQVGDSTVVGTSRLRDLYDKFEEELGSRQEKAKAARPPWEPPKTKLDEDLESSSESECESDEDSTCSSSSDSEVFDVIAEIKRKKAHPDRLHDELWYNDPGQMNDGPLCKCSAKARRTGIRHSIYPGEEAIKPCRPMTNNAGRLFHYRITVSPPTNFLTDRPTVIEYDDHEYIFEGFSMFAHAPLTNIPLCKVIRFNIDYTIHFIEEMMPENFCVKGLELFSLFLFRDILELYDWNLKGPLFEDSPPCCPRFHFMPRFVRFLPDGGKEVLSMHQILLYLLRCSKALVPEEEIANMLQWEELEWQKYAEECKGMIVTNPGTKPSSVRIDQLDREQFNPDVITFPIIVHFGIRPAQLSYAGDPQYQKLWKSYVKLRHLLANSPKVKQTDKQKLAQREEALQKIRQKNTMRREVTVELSSQGFWKTGIRSDVCQHAMMLPVLTHHIRYHQCLMHLDKLIGYTFQDRCLLQLAMTHPSHHLNFGMNPDHARNSLSNCGIRQPKYGDRKVHHMHMRKKGINTLINIMSRLGQDDPTPSRINHNERLEFLGDAVVEFLTSVHLYYLFPSLEEGGLATYRTAIVQNQHLAMLAKKLELDRFMLYAHGPDLCRESDLRHAMANCFEALIGAVYLEGSLEEAKQLFGRLLFNDPDLREVWLNYPLHPLQLQEPNTDRQLIETSPVLQKLTEFEEAIGVIFTHVRLLARAFTLRTVGFNHLTLGHNQRMEFLGDSIMQLVATEYLFIHFPDHHEGHLTLLRSSLVNNRTQAKVAEELGMQEYAITNDKTKRPVALRTKTLADLLESFIAALYIDKDLEYVHTFMNVCFFPRLKEFILNQDWNDPKSQLQQCCLTLRTEGKEPDIPLYKTLQTVGPSHARTYTVAVYFKGERIGCGKGPSIQQAEMGAAMDALEKYNFPQMAHQKRFIERKYRQELKEMRWEREHQEREPDETEDIKK

- binding [2]: binds
- binding [1]: binds
- binding [3]: binds
B3: endogenous DROSHA (enzyme, UniProt Q9NRR4 1-1374)
chain: MMQGNTCHRMSFHPGRGCPRGRGGHGARPSAPSFRPQNLRLLHPQQPPVQYQYEPPSAPSTTFSNSPAPNFLPPRPDFVPFPPPMPPSAQGPLPPCPIRPPFPNHQMRHPFPVPPCFPPMPPPMPCPNNPPVPGAPPGQGTFPFMMPPPSMPHPPPPPVMPQQVNYQYPPGYSHHNFPPPSFNSFQNNPSSFLPSANNSSSPHFRHLPPYPLPKAPSERRSPERLKHYDDHRHRDHSHGRGERHRSLDRRERGRSPDRRRQDSRYRSDYDRGRTPSRHRSYERSRERERERHRHRDNRRSPSLERSYKKEYKRSGRSYGLSVVPEPAGCTPELPGEIIKNTDSWAPPLEIVNHRSPSREKKRARWEEEKDRWSDNQSSGKDKNYTSIKEKEPEETMPDKNEEEEEELLKPVWIRCTHSENYYSSDPMDQVGDSTVVGTSRLRDLYDKFEEELGSRQEKAKAARPPWEPPKTKLDEDLESSSESECESDEDSTCSSSSDSEVFDVIAEIKRKKAHPDRLHDELWYNDPGQMNDGPLCKCSAKARRTGIRHSIYPGEEAIKPCRPMTNNAGRLFHYRITVSPPTNFLTDRPTVIEYDDHEYIFEGFSMFAHAPLTNIPLCKVIRFNIDYTIHFIEEMMPENFCVKGLELFSLFLFRDILELYDWNLKGPLFEDSPPCCPRFHFMPRFVRFLPDGGKEVLSMHQILLYLLRCSKALVPEEEIANMLQWEELEWQKYAEECKGMIVTNPGTKPSSVRIDQLDREQFNPDVITFPIIVHFGIRPAQLSYAGDPQYQKLWKSYVKLRHLLANSPKVKQTDKQKLAQREEALQKIRQKNTMRREVTVELSSQGFWKTGIRSDVCQHAMMLPVLTHHIRYHQCLMHLDKLIGYTFQDRCLLQLAMTHPSHHLNFGMNPDHARNSLSNCGIRQPKYGDRKVHHMHMRKKGINTLINIMSRLGQDDPTPSRINHNERLEFLGDAVVEFLTSVHLYYLFPSLEEGGLATYRTAIVQNQHLAMLAKKLELDRFMLYAHGPDLCRESDLRHAMANCFEALIGAVYLEGSLEEAKQLFGRLLFNDPDLREVWLNYPLHPLQLQEPNTDRQLIETSPVLQKLTEFEEAIGVIFTHVRLLARAFTLRTVGFNHLTLGHNQRMEFLGDSIMQLVATEYLFIHFPDHHEGHLTLLRSSLVNNRTQAKVAEELGMQEYAITNDKTKRPVALRTKTLADLLESFIAALYIDKDLEYVHTFMNVCFFPRLKEFILNQDWNDPKSQLQQCCLTLRTEGKEPDIPLYKTLQTVGPSHARTYTVAVYFKGERIGCGKGPSIQQAEMGAAMDALEKYNFPQMAHQKRFIERKYRQELKEMRWEREHQEREPDETEDIKK

From doi:10.1101/858647
